Source: paper PMC10269899
No constants are given. Whether binding was seen depends on the method and setting. In cells and extracts the contact can be indirect. These calls come from enrichment with a bait or labelling near it, and not all partners need be listed.

B1: UDP-N-acetylmuramoyl-L-alanyl-D-glutamate-L-lysine ligase (protein, UniProt A4VU28 1-481)
chain: MITIERVLEILKADANFRHIKQNDQTDSTWTDVQFDALSYDSRTVSPMTLFFAKGLAFKKEFLEKAIEAGLAFYVSEINYEVGIPAIIVHDIKQAMSLIAMEFHGHPQKQLKLLAFTGTKGKTTAAYFAFNILKQSKKPAMLSTMNTTLDGKTFFKSTLTTPESLDLFAMMAEAVKNGMTHLIMEVSSQAYLVKRVYGLTFDVGVFLNISPDHIGPIEHPTFEDYFYHKRLLMDNSRAVIVNAGMDHFEVVKEQVSSKDHDFYGPTSENQISQSAGFDFTATGKLAGHYDIQLIGGFNQENAIAAGLACLRLGASLEDIHTGIAQTNVPGRMEVLTQQNGAKVFVDYAHNGDSVKKLIDVVLEHQTGKVFLILGAPGNKGESRRKDFGLLLNDYPQIEVILTADDPNREDPAAIAEQIRAHMTRTSNFILDREEAIRTAMSQTSSPKDAVIIAGKGADAYQIVNGEKAAYDGDLEVAKQYL
B2: Cytidylate kinase (protein, UniProt A4VVU8 1-225)
chain: MKSIQIAIDGPASSGKSTVAKIIAKNLGYTYLDTGAMYRSATYLALTNGIEVTDQNRIVDLLAQYPIRFGRDENGQQLVFVGDEDVTLPIRDNQVTNNVSAVAALPLVREELVRLQQDIAQAGGIVMDGRDIGTVVLPQAELKIFLVASVEERALRRFKENTERGIETDLESLKEEIAARDYKDSNREVSPLKAADDAITFDTTGVSIEGVVKFISEKAKEILDR
B3: 50S ribosomal protein L33 (peptide, UniProt A4VT05 1-49)
chain: MRVNITLEHKESGERLYLTSKNKRNTPDRLQLKKYSPKLRKHVIFTEVK
B4: 50S ribosomal protein L35 (protein, UniProt A4VVU6 1-66)
chain: MPKQKTHRASAKRFKRTGSGGLKRFRAYTSHRFHGKTKKQRRHLRKAGMVHAGDFKRIKSMLTGLK

Each binder was assayed against DivIVA (cell division initiation protein) (Streptococcus suis (endogenous in strain SC-19)) (assay: affinity purification with mass spectrometry; anti-DivIVA mouse serum with protein A and protein G on lysate of S. suis SC-19 cells cross-linked with 0.1% paraformaldehyde; control: lysate of the divIVA deletion strain; wash 50 mM Tris-HCl, 150 mM NaCl, 1% Nonidet P-40, 0.05% sodium deoxycholate; Q Exactive Plus, MaxQuant).

Row | binding | Binder
1 | binds | B1
2 | binds | B2
3 | binds | B3
4 | binds | B4
